# Screening data, single-dose tests

The filed quantity is “Percent Effect” (%).
The controls that fix the scale are not given in the record; negative values are as filed.
This is an unselected part of the compounds tested.
Two or more numbers in one place are separate tests of the same structure; such repeats can differ widely.

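Cell assay of Leishmania donovani living inside macrophages; the read-out is not stated. Compounds at 30 µM. The record gives no direction; compounds that gave an IC50 in retests scored well above the rest, so higher reads as stronger inhibition. Size under these conditions: about 69,000 compounds, about 1,000 of them at 50% or above in at least one test.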

| structure | percent effect |
|---|---|
| `COC1CCCN(Cc2nc(Cc3ccccc3F)no2)C1` (stereo not drawn) | 10.86% |
| `CN(Cc1ccccc1)CC1(O)CCCN(Cc2ccc(F)cc2)C1=O` (stereo not drawn) | 26.31% |
| `Cc1ccc(C(=O)N2CCC3(CCN(Cc4ccccn4)C3=O)C2)cn1` (stereo not drawn) | 50.83% |
| `Cc1ccc2cc(C(=O)N3CCN(C(=O)c4ccoc4)CC3)[nH]c2c1` | -9.964% |
| `CCc1nc(CN(C)CC(=O)NC(C)C)cs1` | 35.21% |
| `Cc1ccc(CNc2cc(C(=O)N3CCOCC3)nc(C)n2)cc1` | -23.05% |
| `CS(=O)(=O)CCCC(=O)Nc1cc(-c2cccc(F)c2F)n[nH]1` | -20.02% |
| `Cc1ccc(C2CN(Cc3cnc(-c4cccnc4)s3)CCO2)o1` (stereo not drawn) | 9.827% |
| `CC(=O)N1CCCC(C(=O)NCCc2csc(-c3ccncc3)n2)C1` (stereo not drawn) | 30.75% |
| `Cc1nn(C)c(C)c1CC(=O)N1CCC(N(C)c2cccnn2)CC1` | 18.65% |
| `[H][C@@]12CCN(C(=O)NCC)C[C@]1([H])CCN(CCN1CCNC1=O)C(=O)C2` | 16.97% |
| `CCOC(=O)c1coc(N2CCN(C(=O)c3cccc(OC)c3)CC2)n1` | 12.71% |
| `[H][C@]12CC[C@]([H])(CN(C3Cc4ccccc4C3)C1)N(C(=O)N(C)C)C2` | 19.94% |
| `CNC(=O)[C@@H](c1ccccc1OC)N1CCC[C@H]1C(=O)N1CC[C@@H](O)C1.Cl` | 19.39% |
| `O=C(NCC1(c2ccc(F)cc2)CCC1)N1CCC2(C1)OCCO2` | 0.5399% |
| `Cn1cc(C2CCCN2C(=O)CCCc2ccccn2)cn1` (stereo not drawn) | -1.088% |
| `CC(=O)N1CCC[C@@H](NCc2cccc(F)c2)[C@@H]1c1ccc(C)s1.Cl` | 2.624% |
| `CCN1CCc2nc(N3CCOCC3)nc(NC(C)C)c2C1` | 20.16% |
| `CSCCNC(=O)c1ccc(OC2CCN(CC(C)(C)C)CC2)c(Cl)c1` | 17.7% |
| `N#CCC(=O)NCc1nnc2n1CCN(Cc1ccco1)C2` | 15.61% |
| `O=C(NCCCN1CCCCCC1=O)c1n[nH]c(=O)c2ccccc12` | 16.62% |
| `Cc1nccn1CCCC(=O)N1CCC(Nc2cccnn2)CC1` | 2.027% |
| `Clc1cccnc1N1CCC(NCc2cccc3cn[nH]c23)C1` (stereo not drawn) | 17.22% |
| `Cc1cnn(CC2CCCN2Cc2nc3ccccc3c(=O)[nH]2)c1` (stereo not drawn) | 0.9908% |
| `CN(Cc1ccccn1)C1CCCN(Cc2noc(C3CC3)n2)C1` (stereo not drawn) | 35.23% |
| `[H][C@@]12CCN(C(=O)c3cnccn3)C[C@@]1([H])O[C@@H](C)C2` | 13.37% |
| `CCc1nc(C)c(C(=O)NCCNc2ncccn2)s1` | 8.726% |
| `Cc1ccc(-c2nc(CN3CCOC(Cn4cccn4)C3)no2)cc1` (stereo not drawn) | 13.23% |
| `CCOc1ccc(CN2CCC(c3ccn[nH]3)C2)cc1CO` (stereo not drawn) | -0.6638% |
| `CCCN(C(=O)CNC1CCc2ncnn2C1)C1=CCCCC1` (stereo not drawn) | 4.041% |
| `CN(CC1=CCCN(CCc2ccccn2)C1)C(=O)c1ccco1` | 13.23% |
| `CCc1nc(CNCC2CCCN2c2cccnn2)cs1` (stereo not drawn) | 25.96% |
| `CCc1cnc(C)nc1NC(C)C(=O)Nc1cc(F)ccc1C` (stereo not drawn) | -12.95% |
| `CC(CN1CCOC1=O)NC(=O)c1cccc(C#N)c1` (stereo not drawn) | 13.3% |
| `c1ccc(C(CNc2ncccn2)N2CCOCC2)nc1` (stereo not drawn) | 37.83% |
| `NC(=O)c1sc2ccccc2c1C1CCN(S(=O)(=O)N2CCOCC2)C1` (stereo not drawn) | 7.876% |
| `O=C(CNC(=O)Nc1c(F)cccc1Oc1ccccc1)NC1CC1` | 24.06% |
| `CCc1nsc(N2CCCN(CC(=O)N(C)C3CC3)CC2)n1` | 5.523% |
| `CCN(Cc1c(F)cccc1F)C(=O)c1ccncc1O` | 14.15% |
| `COCc1cn(C2CCN(Cc3ccc(Cl)s3)CC2)nn1` | -70.11% |
| `COCC1c2c(cnn2CC2CC2)CCN1Cc1ccc(C)o1.O=C(O)C(F)(F)F.O=C(O)C(F)(F)F` (stereo not drawn) | 26.84% |
| `CCN(C)CC1CCN(C(=O)Nc2ccc(C)cc2)C1` (stereo not drawn) | 24.89% |
| `Cc1cc(C(=O)N(C)Cc2ccoc2)c(NC(=O)C(C)(C)C)s1` | -8.966% |
| `Cc1cnccc1CN1Cc2ccccc2O[C@]2(CC[C@H](CO)CC2)C1` | 10.96% and -11.33% |
| `[H][C@@]12OCCN(C(=O)C3CCOCC3)[C@@]1([H])CC[C@@H]2OCC1CC1` | 19.3% |
| `Cc1cc(CN2CCC3(CC2)C(=O)NCCN3CC2CC2)oc1C` | 17.57% |
| `CC(=O)NCc1cc(-c2cccs2)n(C2CCCC2)n1` | 19.1% |
| `O=c1c2cccnc2cnn1CC(O)c1cccc(C(F)(F)F)c1` (stereo not drawn) | -11.82% |
| `Cc1c(C(=O)N2CC(=O)N(C)C2)nnn1-c1cccc2cccnc12` | 15.94% |
| `CC(=O)Nc1nc(-c2ccccc2)c[nH]1` | 15.66% |
| `CCc1ncc(C(=O)NCCN2CCNC2=O)cn1` | 11.64% |
| `Cc1ccccc1C(=O)NC(C)CN1CCOC1=O` (stereo not drawn) | -6.203% |
| `COCc1nc2n(n1)CCCC2Nc1nc(C)ns1` (stereo not drawn) | -12.79% |
| `[H][C@]12CC[C@]([H])(CN(Cc3cccnc3)C1)N(C(=O)Cc1ccccc1C)C2` | 10.16% |
| `CN(CCCC#N)C1CCCN(Cc2noc(C3CC3)n2)C1` (stereo not drawn) | 35.66% |
| `O=C(O)c1cc(S(=O)(=O)Nc2ccccc2)cc2c1OCCO2` | 6.316% |
| `Cc1nc(NC(=O)NCc2nc3cccc(C)c3n2C)oc1C` | -3.819% |
| `O=C(NCc1ccccc1)[C@@H]1Cc2[nH]cnc2CN1CC1CC1` | 14.17% |
| `CCn1cc(CN2CCC(CN3CCCCC3)CC2)cc1C#N` | 23.39% |
| `Cc1ccc(C(=O)Nc2cn[nH]c2)cc1` | 23.48% |
| `O=C(COCc1ccccc1)N1CCN(Cc2ccccc2F)C(=O)C1` | 35.67% |
| `Cc1nc(C2CCN(C)CC2)cc(N2CCOc3ccc(Cl)cc3C2)n1` | 85.22% |
| `CCOCC(=O)N1CCCn2c(nnc2Cn2cccc2)C1` | 42.05% |
| `COc1nn(C)cc1-c1nnc(SCc2cccnc2)n1C` | -1.752% |
| `Cc1cnn(CC2CCN(CC(O)c3ccccc3Cl)CC2)c1` (stereo not drawn) | 14.62% |
| `COc1cccc(CN2CCC(c3nn(CCN)c4nccnc34)C2)c1` (stereo not drawn) | -11.11% |
| `CCCc1cc(CNC(=O)Cc2cc(C)no2)on1` | 19.4% |
| `Cc1cccc(OCCN2CCN(Cc3cnn(CCO)c3)CC2)c1` | 16.15% |
| `CSc1nccn1-c1ccc(C(=O)NCC2CC2)cc1` | 12.54% |
| `CC(=O)N1CCC(c2cc(C(F)(F)F)n3ccnc3n2)CC1` | 26.13% |
| `Cc1cnn(CC(C)NCc2nc(-c3cccs3)no2)c1` (stereo not drawn) | 8.762% |
| `Cc1nn(C)c(C)c1NC(=O)CN1CCc2c(nc(C(C)C)n2C)C1` | 3.692% |
| `CCN(Cc1ccc(CN(C)C)cc1)C(=O)c1ccncc1O` | 18.01% |
| `Cc1cc(NC(=O)CN2CCCC2Cn2nc(C)nc2C)n(C)n1` (stereo not drawn) | 11.77% |
| `CNC(=O)c1ccccc1-c1ccc(S(C)(=O)=O)cc1` | 9.715% |
| `Cc1ccc(C2COCCN2C(=O)c2ccc(CN(C)C)cc2)o1` (stereo not drawn) | 39.81% |
| `NCCO[C@H]1C[C@@H](O)C12CCN(C(=O)CCOc1ccccc1)CC2` | 26.03% |
| `COCCCNC(=O)Cc1cc(-c2ccc(Cl)cc2)on1` | -16% |
| `O=C(O)c1ccc(C2CCCN(Cc3ccc(-c4cc[nH]n4)o3)C2)cc1` (stereo not drawn) | 54.21% |
| `CC(C)C(=O)N1CCC(C2C(=O)Nc3ccccc32)CC1` (stereo not drawn) | 14.24% |
| `CC(C)n1cnnc1CN(C)Cc1cnc(-c2cccs2)nc1` | 11.73% |
| `CN(C1CCCCC1)S(=O)(=O)NC1CCCN(c2ncccn2)C1` (stereo not drawn) | 25.65% |
| `COc1ccc(-c2nccn2CC(O)CN2CCCC2)c(F)c1` (stereo not drawn) | 5.05% |
| `COc1cccc(S(=O)(=O)NC2CNC(=O)C2)c1` (stereo not drawn) | 5.584% |
| `[H][C@@]12CS(=O)(=O)C[C@]1([H])N(C(=O)c1ncoc1C)CCN2C(=O)CC(C)C` | -22.13% |
| `Nc1ccnc(-c2cc(NC3CCNCC3)nc3[nH]ccc23)c1` | -8.31% |

6 of the entries, repeated:

structure	percent effect
[H][C@]12CC[C@]([H])(CN(C3Cc4ccccc4C3)C1)N(C(=O)N(C)C)C2	19.94%
CCc1nc(CN(C)CC(=O)NC(C)C)cs1	35.21%
CCc1nc(CNCC2CCCN2c2cccnn2)cs1 (stereo not drawn)	25.96%
CCN(Cc1ccc(CN(C)C)cc1)C(=O)c1ccncc1O	18.01%
COc1nn(C)cc1-c1nnc(SCc2cccnc2)n1C	-1.752%
COCc1nc2n(n1)CCCC2Nc1nc(C)ns1 (stereo not drawn)	-12.79%

From ChEMBL document CHEMBL3988442, “University of Dundee, Small-Polar-MMV Screening Library” (2021).